Experimental data: the supplement of paper PMC6411743
± gives the standard deviation of the averaged measurements. Only a part is listed here, and it is no random draw.

Experiments:
Test in all cases: NP40-soluble protein abundance relative to vehicle (solubility fold change) (ratio); higher = more soluble protein in presence of AMP-PNP
SERGEF = target: T1, SERGEF (UniProt Q9UGK8)
T1 sequence (whole entry): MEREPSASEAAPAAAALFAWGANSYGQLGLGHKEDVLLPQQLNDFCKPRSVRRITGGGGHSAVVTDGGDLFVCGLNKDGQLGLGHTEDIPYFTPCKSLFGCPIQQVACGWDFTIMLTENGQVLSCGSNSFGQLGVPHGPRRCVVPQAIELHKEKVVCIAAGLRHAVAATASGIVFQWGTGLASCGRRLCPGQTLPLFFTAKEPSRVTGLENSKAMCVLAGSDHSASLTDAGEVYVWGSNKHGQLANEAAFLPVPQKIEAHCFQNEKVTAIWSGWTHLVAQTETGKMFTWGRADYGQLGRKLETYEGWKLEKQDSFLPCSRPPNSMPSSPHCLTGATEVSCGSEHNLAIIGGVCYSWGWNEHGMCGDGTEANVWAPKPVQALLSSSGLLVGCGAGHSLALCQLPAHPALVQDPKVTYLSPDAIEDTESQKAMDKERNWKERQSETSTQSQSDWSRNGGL
Outline: (§1)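 Values are fold changes against the detergent-processed vehicle, based on vsn-normalised intensities. Jurkat crude lysate was treated at eight concentrations from 0.1 to 10 mM (10 min at room temperature, then 3 min at 37 °C), solubilised with 0.8% NP40 and benzonase, ultracentrifuged and analysed by TMT-labelled LC-MS/MS over three independent experiments.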

SNX6 = target: T2, SNX6 (UniProt Q9UNH7)
T2 sequence (whole entry): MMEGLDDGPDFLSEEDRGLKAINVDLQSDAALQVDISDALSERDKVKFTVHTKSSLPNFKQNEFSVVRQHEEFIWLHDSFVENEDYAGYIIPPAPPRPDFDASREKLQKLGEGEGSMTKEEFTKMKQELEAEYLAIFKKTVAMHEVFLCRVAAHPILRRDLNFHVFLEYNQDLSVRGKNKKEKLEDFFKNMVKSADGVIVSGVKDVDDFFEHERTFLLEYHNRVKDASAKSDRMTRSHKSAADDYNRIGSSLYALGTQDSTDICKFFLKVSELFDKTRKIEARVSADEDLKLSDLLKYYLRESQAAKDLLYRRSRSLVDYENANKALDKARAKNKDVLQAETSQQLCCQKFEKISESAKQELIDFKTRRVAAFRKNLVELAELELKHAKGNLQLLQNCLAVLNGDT
Outline: as §1

[1] = target: T3, UniProt Q9UJ68 and related entries
T3 sequence (whole entry): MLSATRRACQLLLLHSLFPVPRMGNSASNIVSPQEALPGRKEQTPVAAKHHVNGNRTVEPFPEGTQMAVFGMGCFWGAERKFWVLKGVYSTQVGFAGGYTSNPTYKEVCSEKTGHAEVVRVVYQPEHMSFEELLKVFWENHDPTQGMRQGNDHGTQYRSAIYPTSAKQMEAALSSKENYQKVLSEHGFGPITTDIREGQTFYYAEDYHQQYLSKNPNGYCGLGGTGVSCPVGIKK
Outline: as §1

[2] = target: T4, UniProt Q9UJS0 and related entries
T4 sequence (whole entry): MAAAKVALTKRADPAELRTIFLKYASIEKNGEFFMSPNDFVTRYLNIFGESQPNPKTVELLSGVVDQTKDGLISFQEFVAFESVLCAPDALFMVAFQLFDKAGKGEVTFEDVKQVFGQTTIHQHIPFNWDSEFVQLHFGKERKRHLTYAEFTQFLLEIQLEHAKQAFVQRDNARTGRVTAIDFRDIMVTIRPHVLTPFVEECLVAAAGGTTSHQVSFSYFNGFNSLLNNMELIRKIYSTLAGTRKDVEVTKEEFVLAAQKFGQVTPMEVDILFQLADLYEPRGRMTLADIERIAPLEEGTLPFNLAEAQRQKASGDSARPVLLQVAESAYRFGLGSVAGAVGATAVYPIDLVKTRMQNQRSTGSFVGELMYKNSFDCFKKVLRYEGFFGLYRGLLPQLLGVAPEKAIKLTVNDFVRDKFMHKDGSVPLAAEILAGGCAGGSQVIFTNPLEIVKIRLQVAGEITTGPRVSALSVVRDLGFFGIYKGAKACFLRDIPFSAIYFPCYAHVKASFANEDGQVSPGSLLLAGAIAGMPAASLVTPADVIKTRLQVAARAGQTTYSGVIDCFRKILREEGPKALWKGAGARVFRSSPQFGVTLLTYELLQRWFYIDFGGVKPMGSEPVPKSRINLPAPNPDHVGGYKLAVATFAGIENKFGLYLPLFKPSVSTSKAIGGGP
Outline: as §1

UniProt Q9ULD0 = target: T5, UniProt Q9ULD0
T5 sequence (whole entry): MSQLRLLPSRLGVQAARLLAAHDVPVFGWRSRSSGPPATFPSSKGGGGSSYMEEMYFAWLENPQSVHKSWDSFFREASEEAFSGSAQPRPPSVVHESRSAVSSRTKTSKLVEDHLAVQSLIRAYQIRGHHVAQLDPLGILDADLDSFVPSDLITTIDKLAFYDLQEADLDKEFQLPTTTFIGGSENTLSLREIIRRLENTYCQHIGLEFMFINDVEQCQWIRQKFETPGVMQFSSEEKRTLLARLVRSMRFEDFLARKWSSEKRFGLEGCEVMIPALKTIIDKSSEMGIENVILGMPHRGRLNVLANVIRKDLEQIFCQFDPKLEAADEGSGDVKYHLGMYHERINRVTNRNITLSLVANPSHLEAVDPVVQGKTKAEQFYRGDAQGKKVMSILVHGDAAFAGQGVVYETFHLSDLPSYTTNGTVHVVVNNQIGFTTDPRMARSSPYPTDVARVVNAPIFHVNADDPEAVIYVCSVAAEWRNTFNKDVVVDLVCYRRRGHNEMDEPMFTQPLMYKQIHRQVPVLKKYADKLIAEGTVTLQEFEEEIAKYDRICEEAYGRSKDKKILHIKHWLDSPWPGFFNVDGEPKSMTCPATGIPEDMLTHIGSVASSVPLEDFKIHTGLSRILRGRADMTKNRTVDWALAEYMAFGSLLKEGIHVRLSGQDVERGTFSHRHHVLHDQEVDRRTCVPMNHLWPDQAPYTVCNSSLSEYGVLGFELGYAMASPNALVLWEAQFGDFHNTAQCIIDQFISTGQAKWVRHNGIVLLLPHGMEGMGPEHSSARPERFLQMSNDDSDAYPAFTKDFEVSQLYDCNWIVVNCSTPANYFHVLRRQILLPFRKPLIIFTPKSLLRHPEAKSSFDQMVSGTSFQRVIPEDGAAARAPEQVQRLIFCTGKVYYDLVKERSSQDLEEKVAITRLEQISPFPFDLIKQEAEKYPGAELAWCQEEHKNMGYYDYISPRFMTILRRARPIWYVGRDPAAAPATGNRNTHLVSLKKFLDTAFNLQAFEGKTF
Outline: as §1

[3] = target: T6, UniProt Q9UPU7 and related entries; conditions: concentration: 1mM
T6 sequence (whole entry): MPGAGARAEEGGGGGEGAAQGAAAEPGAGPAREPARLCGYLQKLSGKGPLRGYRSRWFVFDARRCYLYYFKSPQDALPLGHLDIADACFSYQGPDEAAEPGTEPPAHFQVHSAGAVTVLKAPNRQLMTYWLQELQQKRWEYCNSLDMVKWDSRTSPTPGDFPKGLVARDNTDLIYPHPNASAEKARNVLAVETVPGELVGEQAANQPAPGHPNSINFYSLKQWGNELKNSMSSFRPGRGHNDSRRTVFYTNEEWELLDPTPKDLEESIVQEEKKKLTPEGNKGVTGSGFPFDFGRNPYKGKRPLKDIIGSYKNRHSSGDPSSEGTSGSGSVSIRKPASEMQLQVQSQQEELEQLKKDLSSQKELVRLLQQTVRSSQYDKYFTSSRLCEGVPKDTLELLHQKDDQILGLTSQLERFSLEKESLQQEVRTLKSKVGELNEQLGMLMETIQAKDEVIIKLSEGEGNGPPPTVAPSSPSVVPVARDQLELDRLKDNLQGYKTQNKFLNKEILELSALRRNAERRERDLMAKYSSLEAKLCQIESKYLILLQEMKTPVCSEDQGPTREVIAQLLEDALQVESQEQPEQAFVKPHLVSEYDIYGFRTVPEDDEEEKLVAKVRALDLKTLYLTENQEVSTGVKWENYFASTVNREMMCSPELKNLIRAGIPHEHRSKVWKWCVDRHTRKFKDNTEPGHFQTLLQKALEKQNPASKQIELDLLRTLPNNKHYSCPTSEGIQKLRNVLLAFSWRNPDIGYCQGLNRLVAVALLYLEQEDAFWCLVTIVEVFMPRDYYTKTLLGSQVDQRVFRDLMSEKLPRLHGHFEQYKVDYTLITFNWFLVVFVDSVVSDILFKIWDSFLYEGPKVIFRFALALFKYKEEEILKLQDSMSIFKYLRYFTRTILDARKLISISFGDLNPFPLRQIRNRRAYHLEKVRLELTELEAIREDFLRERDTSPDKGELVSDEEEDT
Outline: as §1

SMILES: Nc1ncnc2c1ncn2[C@@H]1O[C@H](COP(=O)(O)OP(=O)(O)NP(=O)(O)O)[C@@H](O)[C@H]1O [adenylyl imidodiphosphate]
- NP40-soluble protein abundance (SERGEF; concentration: 6mM): 0.985 ± 0.048
- NP40-soluble protein abundance (SERGEF; concentration: 8mM): 0.996 ± 0.031
- NP40-soluble protein abundance (SERGEF; concentration: 10mM): 0.951 ± 0.048
- NP40-soluble protein abundance (SNX6; concentration: 1mM): 0.992 ± 0.031
- NP40-soluble protein abundance (SNX6; concentration: 2mM): 1.03 ± 0.12
- NP40-soluble protein abundance (SNX6; concentration: 4mM): 0.991 ± 0.069
- NP40-soluble protein abundance (SNX6; concentration: 6mM): 1.03 ± 0.076
- NP40-soluble protein abundance (SNX6; concentration: 8mM): 1 ± 0.077
- NP40-soluble protein abundance (SNX6; concentration: 10mM): 1.03 ± 0.079
- NP40-soluble protein abundance ([1]; concentration: 1mM): 1.06 ± 0.11
- NP40-soluble protein abundance ([1]; concentration: 2mM): 1.03 ± 0.028
- NP40-soluble protein abundance ([1]; concentration: 4mM): 0.994 ± 0.041
- NP40-soluble protein abundance ([1]; concentration: 6mM): 0.995 ± 0.035
- NP40-soluble protein abundance ([1]; concentration: 8mM): 0.997 ± 0.037
- NP40-soluble protein abundance ([1]; concentration: 10mM): 1.001 ± 0.0044
- NP40-soluble protein abundance ([2]; concentration: 1mM): 1.02 ± 0.016
- NP40-soluble protein abundance ([2]; concentration: 2mM): 1.01 ± 0.047
- NP40-soluble protein abundance ([2]; concentration: 4mM): 1.018 ± 0.0089
- NP40-soluble protein abundance ([2]; concentration: 6mM): 1.01 ± 0.035
- NP40-soluble protein abundance ([2]; concentration: 8mM): 0.998 ± 0.029
- NP40-soluble protein abundance ([2]; concentration: 10mM): 1.01 ± 0.049
- NP40-soluble protein abundance (UniProt Q9ULD0; concentration: 1mM): 0.961 ± 0.04
- NP40-soluble protein abundance (UniProt Q9ULD0; concentration: 2mM): 0.955 ± 0.076
- NP40-soluble protein abundance (UniProt Q9ULD0; concentration: 4mM): 0.9642 ± 0.0088
- NP40-soluble protein abundance (UniProt Q9ULD0; concentration: 6mM): 0.987 ± 0.019
- NP40-soluble protein abundance (UniProt Q9ULD0; concentration: 8mM): 0.964 ± 0.056
- NP40-soluble protein abundance (UniProt Q9ULD0; concentration: 10mM): 0.956 ± 0.052
- NP40-soluble protein abundance [3]: 0.996 ± 0.013
